## Results of single-concentration screens

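Phenotypic screen: M. tuberculosis growth, glucose 7H9 medium, 3 days; the read-out is not stated. Tested at 50 µM. Direction is inferred from retests: higher values go with more growth inhibition. Of about 69,000 compounds tested this way, about 760 (1.1%) reached 50% or more in at least one test.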

Each number is a percent effect as filed. How 0% and 100% were set is not recorded. Most values in the screen are low, and negative values occur. The compounds are a random part of those screened. Two or more numbers in one place are separate tests of the same structure; such repeats can differ widely.

compound | percent effect
c1ccc(Cc2noc(CN3CCCC3Cn3cccn3)n2)cc1 (centres undefined) | 50.7
CC1CCCCN1CCNC(=O)NCc1ccc(C#N)cc1F (centres undefined) | 21.67
Cc1ccccc1N1CCN(c2nc(N(C)C)nc3c2CCNC3)CC1 | 55.72
Cc1scc(C(=O)N2CCC3(CC(=O)NC3=O)C2)c1-c1ccccc1 (centres undefined) | -14.77
CC(NCc1cccc(C#N)c1)c1ccccn1.Cl (centres undefined) | -14.93
CCc1cc(NC(=O)C2CCCN(C(=O)NCC(C)C)C2)[nH]n1 (centres undefined) | 18.65
Cc1noc(C)c1CN1C[C@@H](NS(=O)(=O)N(C)C)[C@H](C(C)C)C1 | 29.8
Cc1nc2ncnn2c2ccn(-c3cccnc3O)c(=O)c12 | 5.011
CN(Cc1ccsc1)C(=O)Nc1ccc(S(=O)(=O)N(C)C)cc1 | -20.18
CN1CCC2(CCCN(c3nccc(C(F)(F)F)n3)C2)CC1.O=C(O)C(F)(F)F | 26.34
CN(C)C(=O)CCS(=O)(=O)Cc1coc(-c2ccc(F)cc2)n1 | 6.134 and -0.7286
[H][C@@]12CC(=O)/C(=C(/C)NC(=O)c3ccco3)[C@]1([H])C2(C)C | 9.702
O=C1Nc2ccccc2CC12CCN(CCO)C2 (centres undefined) | -8.605
[H][C@@]12CCN(C(=O)Cc3ccc(O)cc3)C[C@]1([H])[C@@H](c1ccccc1)CN2C | 8.597
O=C(O)C(F)(F)F.O=C(O)C(F)(F)F.O=C(O)C(F)(F)F.c1cncc(COCC2CN(Cc3cccnc3)Cc3ccnn3C2)c1 (centres undefined) | 0.589 and 13.37
O=C(O)C(F)(F)F.c1csc(CN2Cc3nccn3CC(Cn3cncn3)C2)c1 (centres undefined) | -35.48
Cc1cc(CN(CCO)Cc2cc(Br)ccc2F)no1 | 8.703 and 14.22
O=C1CC(NCc2ccccn2)CN1CCc1ccc(F)cc1 (centres undefined) | -4.248
CC(C)c1nccn1Cc1cc(C(=O)NCC(F)(F)F)n[nH]1 | -13.63
Cc1ccc(-c2nc(CC3CCN(C)CC3)no2)cc1N1CCNC1=O | -20.89
O=C(c1ccccn1)N1CCc2c(nc(-c3ccncc3)[nH]c2=O)C1 | -2.735 and 8.094
CN1CCCc2ccc(S(=O)(=O)NC(=O)C3CC=CC3)cc21 | 13.37
CN1CCN(c2ccc(C(=O)N3CCCC(c4ncc[nH]4)C3)cc2)CC1 (centres undefined) | 11.52
Cc1cc(C2CCCN2C(=O)Cn2c(C)cc(=O)c3ccccc32)on1 (centres undefined) | -21.44 and 3.855
Cc1ccc2[nH]c(CN(C)Cc3n[nH]c4c3CCC4)nc2c1 | 15
NC(=O)c1ccc(CNC(=O)NCc2cc[nH]n2)cc1 | 0.1957 and 8.975
CC(C)c1cc(CN2CCN(c3cccnc3)CC2)n(C)n1 | 16.44
O=C(NC1CCCC1)O[C@H]1COCCN(c2nc3ccccc3s2)C1 | 17.97 and -16.31
COc1cc(NC(=O)N(C)CC2CC2)ncn1 | 17.42 and 7.151
CC/C=C(/C)C(=O)NCc1ccc(OC)nc1 | 35.44
Cc1cc(C(=O)NC(C)c2nnn[nH]2)c2cccc(C)c2n1 (centres undefined) | 9.581
CC(=O)N1C[C@H](c2cc(O)nc(C)n2)[C@@H](c2ccccc2F)C1 | -26.21
Cc1cc(C)n(CC2CCCCN2CC(=O)Nc2c(C)n[nH]c2C)n1 (centres undefined) | 22.38
NC(=O)N1CCCC1COC(=O)c1cc(F)ccc1F (centres undefined) | 26.28
CC(C)c1noc(CCC(=O)N(CC2CCOC2)C2CC2)n1 (centres undefined) | 17.38
CCCN(Cc1cnn(C)c1)S(=O)(=O)c1ccc(F)c(C#N)c1 | 3.056
[H][C@@]12CN(C(=O)N3CCOCC3)C[C@]1([H])OCCN2C(=O)c1ccco1 | -0.6869 and 7.111
O=C(O)C(c1ccc2c(c1)OCO2)N1CCCC1 (centres undefined) | -6.031
Cc1nc(C)n(Cc2cccc(NC(=O)NC(C)(CO)C3CC3)c2)n1 (centres undefined) | -26.39
O=C(C1CCCC1)N1CCC(c2ccnc(Nc3cnccn3)n2)C1 (centres undefined) | -44.21
C[C@@H](O)CNC(=O)c1nc(CC(=O)Nc2cccc(C(F)(F)F)c2)no1 | -29.16 and -1.022
O=C(O)C(F)(F)F.[H][C@@]12COC[C@]1(CNC(=O)c1ccco1)CN(Cc1cc(C)on1)C2 | -11.42
CNc1nc(C2CCCCN2C(=O)C(C)(C)OC)nc2c1CN(C)CC2 (centres undefined) | 25.67
Cc1cc(C)n(CC2CCCN2C(=O)c2ccc3c(c2)OCCO3)n1 (centres undefined) | -8.856
O=C(Cc1ccccc1Cl)NCCN1CCC(c2cccs2)CC1 | -0.7694
O=C(CN1CCOC(Cn2cccn2)C1)NCc1ccco1 (centres undefined) | -16.85
CCc1cnc(N2CCN(Cc3ccncc3)CC2)s1 | 40.15
Cc1ccccc1-c1cc(NC(=O)NC2CC2)n(CCO)n1 | -2.881
CN1CCOC(CN(C(=O)CCc2cnn(C)c2)c2nccs2)C1 (centres undefined) | -0.4508 and 14.23
O=C(O)C(F)(F)F.[H][C@@]12C[C@H](C(=O)NC)CN(CC3CC3)[C@]1([H])CCO2 | 10.5 and -1.164
Cc1ncc2c(n1)CCN(Cc1nc(Cc3ccccc3)no1)C2 | -3.354 and 12.39
CCNC(=O)[C@@H]1CCCN1[C@@H](C(=O)NC)c1ccccc1OC.Cl | -5.506 and -5.815
CN1CCN(C(=O)NC2CCCC2)Cc2cccnc21.O=C(O)C(F)(F)F | -24.37 and -2.357
COC1CCN(S(=O)(=O)N2C[C@H](c3ccccc3)[C@@H](N)C2)CC1 | 19.3
Cc1c2ncn(CC(=O)c3ccccc3)c(=O)c2nn1C | 18.01
CC1(C)CC(N(Cc2ccccc2)Cc2cccnc2)CC(C)(C)N1.O=C(O)CC(O)(CC(=O)O)C(=O)O | -26.02
[H][C@@]12CCN(C(=O)CCc3ccccc3Cl)C[C@]1(COC)CCO2 | 0.6419
CCn1ccnc1CN1CCN(CC(=O)NC2CCOCC2)CC1 | 6.657
O=C(O)C(F)(F)F.O=C1CC[C@]2(CC[C@@H](NCc3ccc4c(c3)OCO4)CC2)N1 | -22.51
Cc1cnn(CC2CCCN2C(=O)c2ccc(OC(C)C)nc2)c1 (centres undefined) | -24.42
Cc1nc(C2CCN(c3ccccc3)CC2)no1 | 4.226
CN(Cc1nnc(C2CC2)n1C)S(=O)(=O)c1ccc(F)c(C#N)c1 | 6.779
Cc1nn(C)c(C)c1-c1ccnc(N2CCCN(CC(C)C)CC2)n1 | 38.47
CC(NCc1ccncc1)c1cc2c(cc1Br)OCCO2 (centres undefined) | -3.877
Cc1cc(C)c2cc(CNCCCN3CCOCC3)c(=O)[nH]c2c1 | 3.834
COc1ncccc1NC(=O)N(C1CC1)C(C)C(C)C (centres undefined) | 12.38
Cc1cc(NC(=O)NCc2cccnc2OC2CCCC2)n(C)n1 | -6.54
CCN(CC)CC(=O)Nc1ccc(-n2ccc(C(N)=O)n2)cc1 | -10.84 and 2.666
Cn1ccc(C(=O)N2CCOC(c3ccc(C(N)=O)cn3)C2)n1 (centres undefined) | 0.2844
CC(C)c1nc(C2CCCN(c3nccc(C(F)(F)F)n3)C2)no1 (centres undefined) | 0.5203
N#CC(NC(=O)CC(F)(F)F)c1ccsc1 (centres undefined) | 19.24

5 of the entries, repeated:

{"compound": "O=C(c1ccccn1)N1CCc2c(nc(-c3ccncc3)[nH]c2=O)C1", "percent effect": "-2.735 and 8.094"}
{"compound": "CCCN(Cc1cnn(C)c1)S(=O)(=O)c1ccc(F)c(C#N)c1", "percent effect": 3.056}
{"compound": "O=C(NC1CCCC1)O[C@H]1COCCN(c2nc3ccccc3s2)C1", "percent effect": "17.97 and -16.31"}
{"compound": "Cc1nc(C)n(Cc2cccc(NC(=O)NC(C)(CO)C3CC3)c2)n1", "stereo": "centres undefined", "percent effect": -26.39}
{"compound": "CN(C)C(=O)CCS(=O)(=O)Cc1coc(-c2ccc(F)cc2)n1", "percent effect": "6.134 and -0.7286"}

The values are deposited in ChEMBL (CHEMBL3988442, “University of Dundee, Small-Polar-MMV Screening Library” (2021)).